Consider one molecule from patent publication US20250145716A1.

Chains of the proteins cited; added tags and fusions are not shown. Residues count along the entry.
UniProt Q9BQ51, residues 20-219: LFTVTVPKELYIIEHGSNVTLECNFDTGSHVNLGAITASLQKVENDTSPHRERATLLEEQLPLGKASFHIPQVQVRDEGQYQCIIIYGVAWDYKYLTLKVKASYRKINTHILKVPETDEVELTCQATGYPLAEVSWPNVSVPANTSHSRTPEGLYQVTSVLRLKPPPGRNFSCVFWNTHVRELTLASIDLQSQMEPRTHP
UniProt P42081, residues 24-247: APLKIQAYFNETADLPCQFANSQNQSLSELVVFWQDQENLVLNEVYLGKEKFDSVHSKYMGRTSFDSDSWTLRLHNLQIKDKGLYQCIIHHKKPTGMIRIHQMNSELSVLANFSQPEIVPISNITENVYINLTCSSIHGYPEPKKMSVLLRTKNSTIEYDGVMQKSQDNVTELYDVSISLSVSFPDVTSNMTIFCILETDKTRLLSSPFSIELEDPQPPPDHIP

Results are given in words; binding and its absence hold for the method and conditions named.

Assay [1] concerns the target T1, human B7-H2 (RD Systems 8206-B7) (human) (UniProt O75144).
T1 sequence (looked up): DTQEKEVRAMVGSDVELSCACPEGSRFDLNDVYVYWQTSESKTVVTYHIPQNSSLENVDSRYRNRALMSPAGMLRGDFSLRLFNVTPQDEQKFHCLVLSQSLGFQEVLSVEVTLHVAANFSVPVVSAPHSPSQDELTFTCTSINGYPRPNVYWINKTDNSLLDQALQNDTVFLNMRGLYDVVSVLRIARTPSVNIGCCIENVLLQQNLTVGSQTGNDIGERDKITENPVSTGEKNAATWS
Put plainly: ELISA, plate-coated human B7-H2, OD 450 nm.

In assay [2] the target is human B7-1/CD80 (RD Systems 9050-B1) (human) (UniProt P33681). Put plainly: ELISA, plate-coated human B7-1/CD80, OD 450 nm.
In assay [3] the target is T2, human B7-H3 (RD Systems 1949-B3) (human) (UniProt Q5ZPR3).
T2 sequence (looked up): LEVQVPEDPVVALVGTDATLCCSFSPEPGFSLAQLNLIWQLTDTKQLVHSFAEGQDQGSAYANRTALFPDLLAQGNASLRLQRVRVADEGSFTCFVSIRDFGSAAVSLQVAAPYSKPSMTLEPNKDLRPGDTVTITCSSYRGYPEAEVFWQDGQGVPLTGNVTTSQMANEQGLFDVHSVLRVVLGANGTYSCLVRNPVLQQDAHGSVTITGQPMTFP
Put plainly: ELISA, plate-coated human B7-H3, OD 450 nm.

Assay [4] concerns the target human PD-L2 (RD Systems 9075-PL) (human) (UniProt Q9BQ51). Put plainly: ELISA, plate-coated human PD-L2, OD 450 nm.
For assay [5], the target named is human B7-1/CD80 (RD Systems 9050-B1) (human) (UniProt P33681). Put plainly: ELISA, ligand coated at 1 µg/mL, 8 antibody concentrations.
The target in assay [6] is human B7-2/CD86 (RD Systems 9090-B2) (human) (UniProt P42081). Described as above.
Assay [7] has as its target human PD-L2 (RD Systems 9075-PL) (human) (UniProt Q9BQ51). Described as above.
The target in assay [8] is T2, human B7-H3 (RD Systems 1949-B3) (human). The assay is described as above.
The target of assay [9] is T1, human B7-H2 (RD Systems 8206-B7) (human). The assay is described as above.
Assay [10] addresses human B7-2/CD86 (RD Systems 9090-B2) (human) (UniProt P42081). Put plainly: ELISA, plate-coated human B7-2/CD86, OD 450 nm.

B1: 1P9 (antibody, V domains shown)
VH: EVQLVESGGGLVQPGGSLRLSCAASGFTFSTYWMSWVRQAPGKGLEWVANIKQDGGERYYVDSVKGRFTISRDNAKSSLYLQMNSLRAEDTALYYCARLRLYSDYEDYWGQGTLVTVSS
VL: DIQMTQSPSSVSASVGDRVTITCRASQGISSWLAWYQQKPGKAPKLLIYSVSSLQSGVPSRFSGSGSGTDFTLTISSLQPEDSATYYCQQANSLPPTFGGGTKVEIK
For the molecule B1, the binding entry in [1] was “no binding (tested: about 4000 ng/mL)”; in assay [2] it was “no binding (tested: about 4000 ng/mL)”; in assay [3], “no binding (tested: about 4000 ng/mL)”; in [4], “no binding (tested: about 4000 ng/mL)”; in assay [5], “no binding (tested: 1 ng/mL to 3 mg/mL)”; in assay [6], “no binding (tested: 1 ng/mL to 3 mg/mL)”. The binding entry was “no binding (tested: 1 ng/mL to 3 mg/mL)” in [7], “no binding (tested: 1 ng/mL to 3 mg/mL)” in [8], “no binding (tested: 1 ng/mL to 3 mg/mL)” in assay [9] and “no binding (tested: about 4000 ng/mL)” in [10].
